{
  "source": "patent US20160067241A1",
  "about": "“COMPOSITIONS AND METHODS TO IMPROVE THE THERAPEUTIC BENEFIT OF SUBOPTIMALLY ADMINISTERED CHEMICAL COMPOUNDS INCLUDING SUBSTITUTED NAPHTHALIMIDES SUCH AS AMONAFIDE FOR THE TREATMENT OF IMMUNOLOGICAL, METABOLIC, INFECTIOUS, AND BENIGN OR NEOPLASTIC HYPERPROLIFERATIVE DISEASE CONDITIONS” (priority 2013, published 2016)",
  "system": "RIF-1 murine fibrosarcoma",
  "test": "RIF-1 fibrosarcoma tumor growth delay (tumor volume quadrupling time) in mice",
  "assay_type": "in vivo, Female C3H mice",
  "conditions": "agent given with amonafide",
  "description": "Tables 1 and 2, shown in FIGS. 1 and 2, respectively, show the use of amonafide, alone or in combination with another anti-neoplastic drug, in a tumor model in mice as described below Female C3H mice (Charles River Laboratories, Hollister, Calif.), approximately 3 months old, were used for the study. The average body weight was approximately 25 g. Animals were maintained in isolator cages on a 12-hour light-and-dark cycle. Food and water were available ad libitum. The RIF-1 murine fibrosarcoma cell line was maintained in in vitro culture (Waymouth medium supplemented with 20% fetal bovine serum) at 37° C. in a humidified 5% CO2 incubator. Log-phase RIF-1 cells were trypsinized and harvested from cell culture flasks to yield a concentration of 4×10^6 cells/mL, then injected intradermally in a volume of 50 μL (equivalent to 2×10^5 cells per injection) into both flanks of each mouse. […] For evaluation of tumor growth delay, tumors were measured three times weekly for up to 22 days with Vernier calipers. Tumor volume (cubic millimeters, mm^3) was calculated according to the following formula: V=π/6×D1×D2×D3, where D1, D2, and D3 are perpendicular diameters measured in milliliters. […] The TVQT was determined for each treatment group and expressed in days as the mean±standard error (SE). […]",
  "note": "At least one structure is not confirmed: it was looked up by name or label, or the drawing left a doubt.",
  "data": [
    {"smiles": "Cn1c(=O)c2c(ncn2C)n(C)c1=O", "note": "[caffeine]", "values": [
      {"measurement": "enhancement of amonafide activity by sensitizing or potentiating agent", "value": "enhances amonafide activity"}
    ]},
    {"smiles": "COc1ccc2cc1Oc1ccc(cc1)C[C@H]1c3cc(c(OC)cc3CCN1C)Oc1c(OC)c(OC)cc3c1[C@H](C2)N(C)CC3", "note": "[tetandrine, 6,6′,7,12-tetramethoxy-2,2′-dimethyl-1β-berbaman]", "values": [
      {"measurement": "enhancement of amonafide activity by sensitizing or potentiating agent", "value": "enhances amonafide activity"}
    ]}
  ]
}
